# Some results were stated once for a whole list of compounds, not compound by compound. At least one structure is not confirmed: it was looked up by name or label, or the drawing left a doubt.
# Tested on: AEA uptake in U937 cells
# Assay: AEA uptake inhibition in U937 cells
# Type: cell-based
# Protocol: Based on the natural product (2E,4E)-N-isobutylamidedodeca-2,4-dienamide from the medicinal plant E. purpurea as a starting point, a library of 634 of analogs and derivatives with varying alkyl chain length was synthesized, and structure of the head group moiety analyzed. All new derivatives were tested for AEA uptake inhibition in U937 cells using a high-content screening assay.
# All radioactivity-based AEA and 2-AG uptake and release assays performed in U937, and HMC-1 cells were carried out using two different assay formats as previously reported. AEA and 2-AG uptake assay in Neuro2a and primary mouse cortical neurons were performed with a different method disclosed in Chicca 2017.
smiles,measurement,value
CCCCCCC/C=C/C=C/C(=O)NCCc1cccnc1 [2-(pyridin-3-yl)]ethyl],selectivity for AEA uptake over FAAH / AEA hydrolysis,60- to 110 fold
